Assay results taken from the supplement of paper PMC5949888.
Most values lie at the floor of the assay. Slopes are relative: functional sequences can read slightly below zero.

Test system: Saccharomyces cerevisiae PS128 hsf1 delta, HSF1(1-493) fusion
Assay: growth estimate (transactivation domain function in HSF1 fusion, heat-shock survival) (a.u. (slope of normalised read count over time)); higher = stronger growth at 37°C, i.e. more transactivation activity
Conditions: library: random library

| Substance | growth estimate |
| --- | --- |
| DPEQEIRRVPVGNAQCLLLH | < -0.25 |
| GPRTRGHREYTNSARKYWLK | < -0.25 |
| GMTSAPGDAACVVRKGPNIW | < -0.25 |
| RGQATGPELHRGGKSTSKIP | < -0.25 |
| TVGKWRCYEIARVKRLTTGP | < -0.25 |
| RSMGSIPGVGW | < -0.25 |
| SGST | < -0.25 |
| TQIT | < -0.25 |
| LGSRFRV | < -0.25 |
| GSPEDENGYG | < -0.25 |
| DGIADVTHETWVQLARRMG | < -0.25 |
| SEGQLLSRSGITRV | < -0.25 |
| RSDLPGGELNARHLIGPSLA | -0.246 |
| RDGKGSGLTAW | < -0.25 |
| LPL | < -0.25 |
| WNSAIGKSRMSWWAQRPSQT | < -0.25 |
| QCYVLGTNSVVPHNRNSAPV | < -0.25 |
| GGRYGEHLGA | < -0.25 |
| WKTPGSCLGSL | < -0.25 |
| QLMNVARPMTHIV | < -0.25 |
| AYGPQVSLFSPCG | < -0.25 |
| WMTEVESTFPRRALILYLPN | < -0.25 |
| SAYGDYVLCLIRLIEGAVGW | < -0.25 |
| CFNSRRSWVEKHYIGAGATR | < -0.25 |

Reprinted at random: three entries already listed.

| Substance | growth estimate |
| --- | --- |
| QLMNVARPMTHIV | < -0.25 |
| SAYGDYVLCLIRLIEGAVGW | < -0.25 |
| AYGPQVSLFSPCG | < -0.25 |

(continued)

| Substance | growth estimate |
| --- | --- |
| WFECRIIR | < -0.25 |
| HFYVAVLSPTVARSSSAHQF | < -0.25 |
| TGSCGS | < -0.25 |
| DMRHSRACCTLRIFENGRRG | < -0.25 |
| GWEESRAT | < -0.25 |
| AIGDPTPLGLPTSG | < -0.25 |
| ARMQADHQPLGLLSTPTVDL | < -0.25 |
| DYIYGKGPSLLNTDEVQTQR | < -0.25 |
| GLSQVWEKRSRPSARAR | < -0.25 |
| YRETPGNYNLPAQGHLTLRS | < -0.25 |
| RRSKCC | < -0.25 |
| LPVRSITFKVSGDSPSLCFS | < -0.25 |
| QENSRSLSTEVCGDILGVAS | < -0.25 |
| YDTCPTHMVEQVGQHTHRGA | < -0.25 |
| IGSSGCSRKAFSYISHMTVL | -0.245 |
| PMPFGSEILGFAR | < -0.25 |
| GWCLQSVQAVPLRLALSKTQ | < -0.25 |
| EGGLRANLTRACSPGFLSMS | < -0.25 |
| KGGWPPSGCRPEEIPSSTLV | < -0.25 |
| TNAYNYIIDSGPEA | < -0.25 |
| VRTVLMKKEKNWSSIRVRAS | < -0.25 |
| QVCRTNLVIPFDA | < -0.25 |
| FSAGLWDSVFGSKRYEWQVR | < -0.25 |
| DKLAEVLSETRKARERSKRR | < -0.25 |

| Substance | growth estimate |
| --- | --- |
| RWVSAAAVIMEMVYKYRGLA | < -0.25 |
| CQRYLDFMSKMRVHSSTSSS | -0.25 |
| GLQRNSSA | < -0.25 |
| PPGSLTPRT | < -0.25 |
| HRKRLDYVSVLFARHWVERH | < -0.25 |
| RLWVRWFHRGGGSLKHNVVT | -0.246 |
| LCSASVSHLQRSLSGEMIEW | < -0.25 |
| RKYLNRKRGVWTRGRNFENG | < -0.25 |
| SSDQRDFTCLIVSVGSFAYS | < -0.25 |
| WVVEIQSHLPGFT | < -0.25 |
| DDGRFLMDSPAVA | < -0.25 |
| LRRNRYTIKSKFTQPSE | < -0.25 |
| LPIRKIEAGSRGVTGGTVNR | < -0.25 |
| ESVG | < -0.25 |
| ARGEDEFADNGWGRIVAVKL | < -0.25 |
| RTGDILIDSVPRTNLILTSG | < -0.25 |
| QGVPTYFAVM | < -0.25 |
| PRSPLYPAPPGDNRTMNSLG | -0.23 |
| AWTDKVRKSLNECVLSGPSG | < -0.25 |
| YGGDNLLSE | < -0.25 |
| QEACGGYAWYW | < -0.25 |
| SASASDECHAYCRRLSAWLC | < -0.25 |
